Some entries share one result that the patent states for a list of compounds.
Tested on: mushroom tyrosinase
Experiment: Irreversible inhibitory activity assay (preincubation with tyrosinase, then L-DOPA)
Settings: 3 or 10 μM isoflavone, 20 units tyrosinase, pH 6.8, 25° C. (FIG. 4)

| Structure (SMILES) | preincubation time within which enzyme was quickly inactivated |
| --- | --- |
| O=c1c(-c2ccc(O)cc2)coc2c(O)c(O)cc(O)c12 [5,7,8,4′-tetrahydroxyisoflavone] | ≤ 2 min |
| O=c1c(-c2ccc(O)cc2)coc2c(O)c(O)ccc12 [7,8,4′-trihydroxyisoflavone] | ≤ 2 min |

Reference: patent US20080317692A1, “SUICIDE SUBSTRATES OF TYROSINASE AND USE THEREOF” (SUSTINEO BIOTECHNOLOGY CO., LTD, priority 2007, published 2008)
